The source of these data is article PMC5602671.

Sequences of proteins named here, by UniProt entry; tags and fusion partners are left off. A change or cut given only in a name is not applied to a line headed by its entry. A line that says so, or that is headed by a name, gives the form on record, which may keep a tag or linker. Residues count along the entry.
UniProt P00772, residues 27-266: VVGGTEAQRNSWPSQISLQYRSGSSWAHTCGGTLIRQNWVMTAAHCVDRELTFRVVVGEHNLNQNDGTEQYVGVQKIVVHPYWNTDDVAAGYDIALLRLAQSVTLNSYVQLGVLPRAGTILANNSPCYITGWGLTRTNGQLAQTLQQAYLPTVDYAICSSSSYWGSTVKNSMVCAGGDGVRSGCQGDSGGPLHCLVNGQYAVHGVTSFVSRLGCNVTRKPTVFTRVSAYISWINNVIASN
human alpha 1-antitrypsin P357D (P01009, form named): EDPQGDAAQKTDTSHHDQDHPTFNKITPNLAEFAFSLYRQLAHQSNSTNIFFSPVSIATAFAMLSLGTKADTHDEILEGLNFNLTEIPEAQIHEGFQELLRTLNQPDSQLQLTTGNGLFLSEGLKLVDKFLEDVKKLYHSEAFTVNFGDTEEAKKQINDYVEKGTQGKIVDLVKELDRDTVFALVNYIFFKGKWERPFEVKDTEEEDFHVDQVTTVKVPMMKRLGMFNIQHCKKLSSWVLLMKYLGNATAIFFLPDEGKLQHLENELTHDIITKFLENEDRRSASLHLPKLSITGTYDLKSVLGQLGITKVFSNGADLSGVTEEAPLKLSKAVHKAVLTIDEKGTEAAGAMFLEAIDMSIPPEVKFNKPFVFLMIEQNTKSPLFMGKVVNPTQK

For assay [1], the target named is porcine pancreatic elastase (porcine) (UniProt P00772). Nature of the assay: SDS-resistant complex formation on SDS-PAGE; A1AT mixed with PPE at molar ratios 1/4, 1/2, 1/1, 2/1 and 4/1, 10 min at 25°C, 20 mM Tris·HCl, 5 mM CaCl2, 0.01% Tween 80, pH 8.0; heated in reducing SDS buffer, 10% gel, Coomassie, densitometry (percent given for the 2:1 ratio); both purified.

The target is the same in assay [2]. The experiment in a line: titration of residual elastase activity (association equilibrium constant Ka); A1AT 0-60 nM mixed with 10 nM PPE or HNE, 30 min at 25°C, 20 mM Tris·HCl, 5 mM CaCl2, 0.01% Tween 80, pH 8.0; residual activity on a synthetic substrate; Ka by linear regression of A1AT concentration over residual activity; both purified.

No constants are given. Whether binding was seen depends on the method and setting.

As to “human alpha 1-antitrypsin P357D (from UniProt P01009 25-418)”, the binding entry is reported as “no binding (tested: molar ratios of A1AT to PPE 1/4 to 4/1)” in assay [1] and “no binding (tested: A1AT up to 60 nM with 10 nM PPE)” in assay [2].
